# Test results from the supplement of paper PMC8728848.
# The other results are listed elsewhere or left out.
# Columns and labels:
# Experiment in all cases: glycan array binding signal (z-score within array); higher = stronger binding
# Conditions in all cases: glycan notation: IUPAC condensed, linker removed
# [1] = molecular target: Neu5Ac(a2-3)Gal(b1-4)GlcNAc(b1-6)GalNAc
# Method in brief: (§1)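 The Consortium for Functional Glycomics database supplied 3228 glycan arrays, of which those lacking an available protein sequence were dropped. The binding signal, a within-array Z-score, was averaged across arrays of the same protein sequence and across linkers. Negative scores can be read as non-binding.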
# [2] = molecular target: Neu5Ac(a2-3)Gal(b1-4)GlcNAc(b1-6)[Gal(b1-3)]GalNAc
# Method in brief: as §1
# [3] = molecular target: Neu5Ac(a2-3)Gal(b1-4)GlcNAc(b1-6)[Neu5Ac(a2-3)Gal(b1-3)]GalNAc
# Method in brief: as §1
# [4] = molecular target: Neu5Ac(a2-3)Gal(b1-4)GlcNAc6S
# Method in brief: as §1
# [5] = molecular target: Neu5Ac(a2-3)Gal(b1-4)[Fuc(a1-3)]GlcNAc
# Method in brief: as §1
# [6] = molecular target: Neu5Ac(a2-3)Gal(b1-4)[Fuc(a1-3)]GlcNAc(b1-2)Man
# Method in brief: as §1
# [7] = molecular target: Neu5Ac(a2-3)Gal(b1-4)[Fuc(a1-3)]GlcNAc(b1-3)Gal
# Method in brief: as §1
# [8] = molecular target: Neu5Ac(a2-3)Gal(b1-4)[Fuc(a1-3)]GlcNAc(b1-3)Gal(b1-4)GlcNAc
# Method in brief: as §1
# [9] = molecular target: Neu5Ac(a2-3)Gal(b1-4)[Fuc(a1-3)]GlcNAc(b1-3)Gal(b1-4)[Fuc(a1-3)]GlcNAc(b1-3)Gal(b1-4)[Fuc(a1-3)]GlcNAc
# Method in brief: as §1
# [10] = molecular target: Neu5Ac(a2-3)Gal(b1-4)[Fuc(a1-3)]GlcNAc(b1-3)GalNAc
# Method in brief: as §1
# [11] = molecular target: Neu5Ac(a2-3)Gal(b1-4)[Fuc(a1-3)]GlcNAc(b1-6)[Gal(b1-3)]GalNAc
# Method in brief: as §1
# [12] = molecular target: Neu5Ac(a2-3)Gal(b1-4)[Fuc(a1-3)]GlcNAc(b1-6)[Neu5Ac(a2-3)Gal(b1-3)]GalNAc
# Method in brief: as §1
# [13] = molecular target: Neu5Ac(a2-3)Gal(b1-4)[Fuc(a1-3)]GlcNAc6S
# Method in brief: as §1
# [14] = molecular target: Neu5Ac(a2-3)Gal6S(b1-4)GlcNAc
# Method in brief: as §1
# [15] = molecular target: Neu5Ac(a2-3)Gal6S(b1-4)[Fuc(a1-3)]GlcNAc
# Method in brief: as §1
# Neu5Ac(a2-3)GalNAc = molecular target: Neu5Ac(a2-3)GalNAc
# Method in brief: as §1
# [16] = molecular target: Neu5Ac(a2-3)GalNAc(b1-4)GlcNAc
# Method in brief: as §1
# [17] = molecular target: Neu5Ac(a2-3)[GalNAc(b1-4)]Gal(b1-4)Glc
# Method in brief: as §1
# [18] = molecular target: Neu5Ac(a2-3)[GalNAc(b1-4)]Gal(b1-4)GlcNAc
# Method in brief: as §1
# [19] = molecular target: Neu5Ac(a2-3)[GalNAc(b1-4)]Gal(b1-4)GlcNAc(b1-3)GalNAc
# Method in brief: as §1
# [20] = molecular target: Neu5Ac(a2-3)[Neu5Ac(a2-6)]GalNAc
# Method in brief: as §1
# Neu5Ac(a2-6)Gal = molecular target: Neu5Ac(a2-6)Gal
# Method in brief: as §1
# [21] = molecular target: Neu5Ac(a2-6)Gal(b1-3)GlcNAc(b1-3)[Gal(b1-4)GlcNAc(b1-6)]Gal(b1-4)Glc
# Method in brief: as §1
# Neu5Ac(a2-6)Gal(b1-4)Glc = molecular target: Neu5Ac(a2-6)Gal(b1-4)Glc
# Method in brief: as §1
# [22] = molecular target: Neu5Ac(a2-6)Gal(b1-4)GlcNAc
# Method in brief: as §1
# [23] = molecular target: Neu5Ac(a2-6)Gal(b1-4)GlcNAc(b1-2)Man
# Method in brief: as §1
# [24] = molecular target: Neu5Ac(a2-6)Gal(b1-4)GlcNAc(b1-2)Man(a1-3)Man(b1-4)GlcNAc(b1-4)GlcNAc
# Method in brief: as §1
# [25] = molecular target: Neu5Ac(a2-6)Gal(b1-4)GlcNAc(b1-2)Man(a1-3)[Gal(b1-4)GlcNAc(b1-2)Man(a1-6)]Man(b1-4)GlcNAc(b1-4)GlcNAc
# Method in brief: as §1
# [26] = molecular target: Neu5Ac(a2-6)Gal(b1-4)GlcNAc(b1-2)Man(a1-3)[GlcNAc(b1-4)][Neu5Ac(a2-6)Gal(b1-4)GlcNAc(b1-2)Man(a1-6)]Man(b1-4)GlcNAc(b1-4)GlcNAc
# Method in brief: as §1
# [27] = molecular target: Neu5Ac(a2-6)Gal(b1-4)GlcNAc(b1-2)Man(a1-3)[Man(a1-6)]Man(b1-4)GlcNAc(b1-4)GlcNAc
# Method in brief: as §1
# [28] = molecular target: Neu5Ac(a2-6)Gal(b1-4)GlcNAc(b1-2)Man(a1-3)[Neu5Ac(a2-3)Gal(b1-4)GlcNAc(b1-2)Man(a1-6)]Man(b1-4)GlcNAc(b1-4)GlcNAc
# Method in brief: as §1
# [29] = molecular target: Neu5Ac(a2-6)Gal(b1-4)GlcNAc(b1-2)Man(a1-3)[Neu5Ac(a2-6)Gal(b1-4)GlcNAc(b1-2)Man(a1-6)]Man(b1-4)GlcNAc(b1-4)GlcNAc
# Method in brief: as §1
# [30] = molecular target: Neu5Ac(a2-6)Gal(b1-4)GlcNAc(b1-2)Man(a1-3)[Neu5Ac(a2-6)Gal(b1-4)GlcNAc(b1-2)Man(a1-6)]Man(b1-4)GlcNAc(b1-4)[Fuc(a1-6)]GlcNAc
# Method in brief: as §1
# [31] = molecular target: Neu5Ac(a2-6)Gal(b1-4)GlcNAc(b1-2)Man(a1-6)Man(b1-4)GlcNAc(b1-4)GlcNAc
# Method in brief: as §1
# [32] = molecular target: Neu5Ac(a2-6)Gal(b1-4)GlcNAc(b1-2)Man(a1-6)[Gal(b1-4)GlcNAc(b1-2)Man(a1-3)]Man(b1-4)GlcNAc(b1-4)GlcNAc
# Method in brief: as §1
# [33] = molecular target: Neu5Ac(a2-6)Gal(b1-4)GlcNAc(b1-2)Man(a1-6)[GlcNAc(b1-2)Man(a1-3)]Man(b1-4)GlcNAc(b1-4)GlcNAc
# Method in brief: as §1
# [34] = molecular target: Neu5Ac(a2-6)Gal(b1-4)GlcNAc(b1-2)Man(a1-6)[Man(a1-3)]Man(b1-4)GlcNAc(b1-4)GlcNAc
# Method in brief: as §1
# [35] = molecular target: Neu5Ac(a2-6)Gal(b1-4)GlcNAc(b1-2)[Neu5Ac(a2-6)Gal(b1-4)GlcNAc(b1-4)]Man(a1-3)[GlcNAc(b1-4)][Neu5Ac(a2-6)Gal(b1-4)GlcNAc(b1-2)[Neu5Ac(a2-6)Gal(b1-4)GlcNAc(b1-6)]Man(a1-6)]Man(b1-4)GlcNAc(b1-4)GlcNAc
# Method in brief: as §1
# [36] = molecular target: Neu5Ac(a2-6)Gal(b1-4)GlcNAc(b1-2)[Neu5Ac(a2-6)Gal(b1-4)GlcNAc(b1-4)]Man(a1-3)[GlcNAc(b1-4)][Neu5Ac(a2-6)Gal(b1-4)GlcNAc(b1-4)Man(a1-6)]Man(b1-4)GlcNAc(b1-4)GlcNAc
# Method in brief: as §1
# [37] = molecular target: Neu5Ac(a2-6)Gal(b1-4)GlcNAc(b1-2)[Neu5Ac(a2-6)Gal(b1-4)GlcNAc(b1-6)]Man(a1-6)[Neu5Ac(a2-6)Gal(b1-4)GlcNAc(b1-2)Man(a1-3)][GlcNAc(b1-4)]Man(b1-4)GlcNAc(b1-4)GlcNAc
# Method in brief: as §1
# [38] = molecular target: Neu5Ac(a2-6)Gal(b1-4)GlcNAc(b1-3)Gal(b1-3)GlcNAc
# Method in brief: as §1
# [39] = molecular target: Neu5Ac(a2-6)Gal(b1-4)GlcNAc(b1-3)Gal(b1-4)GlcNAc
# Method in brief: as §1
# [40] = molecular target: Neu5Ac(a2-6)Gal(b1-4)GlcNAc(b1-3)Gal(b1-4)GlcNAc(b1-2)Man(a1-3)[Neu5Ac(a2-6)Gal(b1-4)GlcNAc(b1-3)Gal(b1-4)GlcNAc(b1-2)Man(a1-6)]GalNAc
# Method in brief: as §1
# [41] = molecular target: Neu5Ac(a2-6)Gal(b1-4)GlcNAc(b1-3)Gal(b1-4)GlcNAc(b1-3)Gal(b1-4)GlcNAc
# Method in brief: as §1
# [42] = molecular target: Neu5Ac(a2-6)Gal(b1-4)GlcNAc(b1-3)Gal(b1-4)GlcNAc(b1-3)Gal(b1-4)GlcNAc(b1-2)Man(a1-3)[Neu5Ac(a2-6)Gal(b1-4)GlcNAc(b1-3)Gal(b1-4)GlcNAc(b1-3)Gal(b1-4)GlcNAc(b1-2)Man(a1-6)]GalNAc
# Method in brief: as §1
binder,measurement,setting,value
Pwp7 (Candida glabrata) (protein) MGSSHHHHHHSSGLVPRGSHMASKNPVDFPNLCQYPNLDGAVAGFDTEIYNADPSILINFSLWPILQFPKEWHKTIGRAITTQTNFKLPASDTTLFGVSIPTQNILIEFRGYFIPPKSGTYTFALYLTDDGSAMFLGNDAAFPCGNITSWSNPTNDQVSVSDYDPKKKTLTVYMVAGVAYPLRIAYYNREKGGSLTASFVDPDGLTHSDWNGYIWTLPSCDNCKYS,glycan array binding signal (z-score),[1],1.05
same,glycan array binding signal (z-score),[2],-0.55
same,glycan array binding signal (z-score),[3],0.511
same,glycan array binding signal (z-score),[4],-0.764
same,glycan array binding signal (z-score),[5],-0.138
same,glycan array binding signal (z-score),[6],0.134
same,glycan array binding signal (z-score),[7],-0.216
same,glycan array binding signal (z-score),[8],-0.893
same,glycan array binding signal (z-score),[9],0.044
same,glycan array binding signal (z-score),[10],-0.282
same,glycan array binding signal (z-score),[11],-1.05
same,glycan array binding signal (z-score),[12],1.38
same,glycan array binding signal (z-score),[13],-0.479
same,glycan array binding signal (z-score),[14],-0.862
same,glycan array binding signal (z-score),[15],-0.423
same,glycan array binding signal (z-score),Neu5Ac(a2-3)GalNAc,-0.36
same,glycan array binding signal (z-score),[16],-0.514
same,glycan array binding signal (z-score),[17],0.515
same,glycan array binding signal (z-score),[18],-0.542
same,glycan array binding signal (z-score),[19],0.373
same,glycan array binding signal (z-score),[20],1.72
same,glycan array binding signal (z-score),Neu5Ac(a2-6)Gal,-1.18
same,glycan array binding signal (z-score),[21],-0.363
same,glycan array binding signal (z-score),Neu5Ac(a2-6)Gal(b1-4)Glc,-0.159
same,glycan array binding signal (z-score),[22],-0.878
same,glycan array binding signal (z-score),[23],-0.256
same,glycan array binding signal (z-score),[24],0.078
same,glycan array binding signal (z-score),[25],-0.168
same,glycan array binding signal (z-score),[26],0.213
same,glycan array binding signal (z-score),[27],0.04
same,glycan array binding signal (z-score),[28],1.81
same,glycan array binding signal (z-score),[29],0.696
same,glycan array binding signal (z-score),[30],0.532
same,glycan array binding signal (z-score),[31],0.746
same,glycan array binding signal (z-score),[32],-0.078
same,glycan array binding signal (z-score),[33],1.52
same,glycan array binding signal (z-score),[34],0.77
same,glycan array binding signal (z-score),[35],-0.287
same,glycan array binding signal (z-score),[36],-0.298
same,glycan array binding signal (z-score),[37],-0.125
same,glycan array binding signal (z-score),[38],-0.452
same,glycan array binding signal (z-score),[39],-0.707
same,glycan array binding signal (z-score),[40],1.92
same,glycan array binding signal (z-score),[41],0.98
same,glycan array binding signal (z-score),[42],3.78

# Fetched one by one from above (4):
binder,measurement,setting,value
Pwp7 (Candida glabrata) (protein) MGSSHHHHHHSSGLVPRGSHMASKNPVDFPNLCQYPNLDGAVAGFDTEIYNADPSILINFSLWPILQFPKEWHKTIGRAITTQTNFKLPASDTTLFGVSIPTQNILIEFRGYFIPPKSGTYTFALYLTDDGSAMFLGNDAAFPCGNITSWSNPTNDQVSVSDYDPKKKTLTVYMVAGVAYPLRIAYYNREKGGSLTASFVDPDGLTHSDWNGYIWTLPSCDNCKYS,glycan array binding signal (z-score),[26],0.213
same,glycan array binding signal (z-score),[1],1.05
same,glycan array binding signal (z-score),[30],0.532
same,glycan array binding signal (z-score),[18],-0.542
